# Screen size: about 320,000 compounds; about 22,000 (6.9%) were called active. Inconclusive means that the source gave no clear call. Such entries were picked first, then a sample of the others. Calls follow the shape of the dose curve; as a rule, active = well fitted inhibition curve with a large enough effect; inconclusive = small, poorly fitted or top-dose-only effect, or another doubt; inactive = no such curve, though single readings can be large or run the other way. Where the call is inconclusive, the potency comes from a doubtful curve fit.
# Experiment: Primary qHTS for delayed death inhibitors of the malarial parasite plastid, 96 hour incubation
# Conditions: P. falciparum luciferase reporter growth; series mostly up to 28.7 µM; activity change, negative = inhibition: at the top concentration
# How it was run: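 Luminescence readout: decreased luciferase signal marks inhibited growth of reporter-expressing P. falciparum in infected red cells (2% hematocrit, 0.05% parasitemia final), exposed to compound two generations (96 h, 37 C, 5% CO2).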
# % is scaled to controls: 0 for no effect and ±100 for the full control effect; potency is read from the fitted curve at half-maximal effect.
Structure (SMILES),"activity change, negative = inhibition",Potency
CCCCn1c(N)c(N(CC(C)C)C(=O)CCCn2c(=O)oc3ccccc32)c(=O)[nH]c1=O,inactive: 9.9%,
O=C(NCCO)c1scc2c1OCCO2,,"inconclusive: 0.0928 µM [inhibitor, partial curve, poor fit]"
CCc1ccccc1NC(=O)c1ccc(CN2CCC(Cc3ccccc3)CC2)cc1,inactive: 25.5%,
CCOC(=O)C1=C(C)NC(=O)NC1c1ccc2c(c1)OCCO2 (stereo not drawn),,"inconclusive: 18.5 µM [inhibitor, single point]"
Cc1cc(NC(=O)c2cccc3c2C(=O)N(C2CCCCC2)C3)ccc1Br,,"inconclusive: 13.1 µM [inhibitor, single point]"
Cc1cc2c(c(SCC(N)=O)n1)C(=O)OC2,,"inconclusive: 6.57 µM [inhibitor, partial curve]"
Clc1ccc(-c2nc3ncccn3c2Nc2ccc3c(c2)OCO3)cc1,,active: 4.15 µM
COc1ccc(C(=O)CN2CCN(S(=O)(=O)c3cccc([N+](=O)[O-])c3)CC2)cc1OC,,"inconclusive: 1.65 µM [inhibitor, single point]"
CCOc1cc(NC(=S)Nc2cccc(OC)c2)c(OCC)cc1NC(=O)C1CC1,,"inconclusive: 0.0586 µM [inhibitor, full curve, poor fit]"
CCOC(=O)c1c(NCCN(C)C)c2ccccc2[nH]c1=O,inactive: 97.9%,
CCCC(=O)Nc1nc(C)c(-c2csc(Nc3ccccc3C)n2)s1,,"inconclusive: 18.5 µM [inhibitor, single point]"
COc1ccc(OC)c(C(=O)N(C)C2CCCN(Cc3ccccc3F)C2)c1 (stereo not drawn),,"inconclusive: 5.22 µM [inhibitor, single point]"
COc1ccccc1N(CC(=O)NCCSCc1ccccc1)S(=O)(=O)c1ccc(C)cc1,,active: 2.62 µM
Cc1nc(SC(C(=O)c2ccccc2)c2ccccc2)n[nH]1 (stereo not drawn),,"inconclusive: 4.15 µM [inhibitor, partial curve, poor fit]"
COc1ccc(/C(C)=N/Nc2cccc(C(=O)O)c2)cc1OC,inactive: 193%,
CCOc1ccccc1NC(=S)N(Cc1cc2ccc(C)cc2[nH]c1=O)CC1CCCN1CC (stereo not drawn),,"inconclusive: 18.5 µM [inhibitor, single point]"
CCn1cc(C(=O)Nc2cccc(C(=O)OC)c2)c(=O)c2ccc(C)nc21,,"inconclusive: 18.5 µM [inhibitor, single point]"
COC(=O)C1=C(Nc2ccccc2NS(=O)(=O)c2ccc(C(F)(F)F)cc2Cl)CSC1,inactive: 23%,
COc1ccc(C(=O)Cn2nnc(-c3ccccc3NC(=O)c3ccco3)n2)cc1,inactive: -24.3%,
COc1ccc(OCc2cc(C(=O)N(C)CC3CCCCO3)no2)c(Cl)c1 (stereo not drawn),,"inconclusive: 11.7 µM [inhibitor, single point]"
COc1ccc(Cl)cc1NC(=O)CCS(=O)(=O)c1cc2c(cc1C)NC(=O)CO2,,"inconclusive: 18.5 µM [inhibitor, single point]"
Cc1cc(C)cc(OC(=O)C23CCC(C)(C(=O)O2)C3(C)C)c1 (stereo not drawn),,"inconclusive: 18.5 µM [inhibitor, single point]"

# Laid out differently: entries from further up
Structure (SMILES) | activity change, negative = inhibition | Potency
CCc1ccccc1NC(=O)c1ccc(CN2CCC(Cc3ccccc3)CC2)cc1 | inactive: 25.5% | 
Clc1ccc(-c2nc3ncccn3c2Nc2ccc3c(c2)OCO3)cc1 |  | active: 4.15 µM
CCOc1ccccc1NC(=S)N(Cc1cc2ccc(C)cc2[nH]c1=O)CC1CCCN1CC (stereo not drawn) |  | inconclusive: 18.5 µM [inhibitor, single point]

# Further records

Structure (SMILES),"activity change, negative = inhibition",Potency
Cc1cccc(C)c1NC(=O)C1c2cccc[n+]2CC(=O)N1Cc1cccs1 (stereo not drawn),inactive: 42.2% [at 1.15 µM],
O=C(Nc1ccc(F)cc1)C(=O)c1cn(CC(=O)N2CCOCC2)c2ccccc12,,"inconclusive: 13.1 µM [inhibitor, single point]"
CCOC(=O)C1CCCN(C(=O)c2cc(Nc3ccc(OC)cc3)nc3ccccc23)C1 (stereo not drawn),,"inconclusive: 0.0657 µM [inhibitor, full curve, poor fit]"
CCSc1nnc2ccc(-c3ccc(OC)c(OC)c3)nn12,inactive: 35.1%,
O=C(O)c1ccc(NC(=O)c2cn(-c3ccccc3)nc2-c2ccc(Cl)cc2)cc1,inactive: 47.7%,
Cc1ccc(S(=O)(=O)N2CCCN(C)c3nc4ccccc4nc32)cc1,inactive: 7.07%,
Nc1nc(NCCc2ccccc2)nc(NCCO)c1[N+](=O)[O-],,"inconclusive: 13.1 µM [inhibitor, single point]"
Cn1c(Cn2nnc3ccccc32)nnc1SCC(=O)N1c2ccccc2Sc2ccccc21,,active: 10.4 µM
CCOC(=O)C1CCN(C(=O)C(C)N(c2ccc(Oc3ccccc3)cc2)S(C)(=O)=O)CC1 (stereo not drawn),,"inconclusive: 9.28 µM [inhibitor, partial curve]"
Cc1cc(C)cc(OCC(=O)NCCc2nc3ccccc3[nH]2)c1,,"inconclusive: 18.5 µM [inhibitor, single point]"
COc1ccc(/C(C#N)=C/c2c(-c3ccc(Cl)cc3)nc3c(C)cccn23)cc1,,"inconclusive: 8.28 µM [inhibitor, partial curve, poor fit]"
O=C(OCCN1CCCC1=O)c1cc(F)c(F)c(F)c1F,,"inconclusive: 11.7 µM [inhibitor, single point]"
CCN1CCN(C(c2cccs2)C(C)NC(=O)NC2CCCCC2)CC1 (stereo not drawn),inactive: 22.4%,
O=C(CCc1ccccc1F)N1CCN(c2ccccc2)CC1,,"inconclusive: 18.5 µM [inhibitor, single point]"
CN(Cc1nccs1)C(=O)c1cc(COc2cccc3cnccc23)on1,,"inconclusive: 18.5 µM [inhibitor, single point]"
CC(C)Cc1nc(SCC(=O)N2CCOCC2)c2c(=O)n(C)c(=O)n(C)c2n1,,"inconclusive: 18.5 µM [inhibitor, single point]"
O=S(=O)(c1ccc(F)cc1)N1CCN(C(=S)NCCc2ccccc2)CC1,,"inconclusive: 10.4 µM [inhibitor, single point]"
CCOc1ccc(/C=N/NC(=O)c2cc3c(OC)cc(OC)c(OC)c3[nH]2)cc1,,"inconclusive: 0.294 µM [inhibitor, full curve, poor fit]"
Cc1c(C)n2c(SCC(=O)N3CCCCC3)nnc2[nH]c1=O,,"inconclusive: 11.7 µM [inhibitor, single point]"
CN1CCN(Cc2ccc(Sc3ccc(Cl)cc3)c([N+](=O)[O-])c2)CC1,,active: 0.165 µM
COc1cc(/C=C/C(=O)O)cc(S(=O)(=O)N2CCc3ccccc32)c1OC,,"inconclusive: 11.7 µM [inhibitor, single point]"

# From PubChem BioAssay AID504834 (National Center for Advancing Translational Sciences (NCATS), 2011)
